# Results reported in patent US20050256302A1, “Novel peptides having camp producing activity” (Japan Science and Technology Agency, priority 2002, published 2005).
# Where a SMILES comes first, the peptide text is derived from it. Bridges are numbered along the chain shown (N, C = ends).
# Experiment: Concentration of CRSP in tissues by radioimmunoassay
# Parameters: species or system pig
# Conditions: mean ± standard error (n = 3)
smiles,measurement,setting,value
CSCC[C@H](NC(=O)[C@H](CCCCN)NC(=O)[C@@H](NC(=O)[C@@H]1CCCN1C(=O)[C@H](CC(C)C)NC(=O)[C@H](CC(C)C)NC(=O)[C@H](CC(N)=O)NC(=O)[C@H](CO)NC(=O)[C@H](CCCNC(=N)N)NC(=O)[C@@H](NC(=O)[C@H](CCSC)NC(=O)[C@H](CO)NC(=O)CNC(=O)[C@H](CO)NC(=O)[C@H](CCCNC(=N)N)NC(=O)[C@H](CO)NC(=O)[C@H](CC(C)C)NC(=O)[C@H](CC(C)C)NC(=O)CNC(=O)[C@@H](NC(=O)[C@H](CC(C)C)NC(=O)[C@H](CCCNC(=N)N)NC(=O)[C@H](Cc1c[nH]cn1)NC(=O)[C@@H](NC(=O)[C@H](CCSC)NC(=O)[C@@H]1CSSC[C@H](NC(=O)[C@@H](N)CO)C(=O)N[C@@H](CC(N)=O)C(=O)N[C@@H]([C@@H](C)O)C(=O)N[C@@H](C)C(=O)N[C@@H]([C@@H](C)O)C(=O)N1)[C@@H](C)O)C(C)C)C(C)C)[C@@H](C)O)C(=O)NCC(=O)N[C@@H](Cc1ccccc1)C(=O)N[C@@H](CCCCN)C(=O)N[C@H](C(=O)N[C@@H](Cc1ccccc1)C(=O)NCC(N)=O)C(C)C [CRSP] (H-SCNTATCMTHRLVGLLSRSGSMVRSNLLPTKMGFKVFG-NH2; disulfide 2-7),Immunoactivity of CRSP,pig Adrenal gland,0.42 ± 0.05 pmol/g tissue
same,Immunoactivity of CRSP,pig Anterior pituitary,14 ± 2 pmol/g tissue
same,Immunoactivity of CRSP,pig Aorta,0.33 ± 0.19 pmol/g tissue
same,Immunoactivity of CRSP,pig Cardiac atrium,0.20 ± 0.04 pmol/g tissue
same,Immunoactivity of CRSP,pig Cardiac ventricle,0.21 ± 0.09 pmol/g tissue
same,Immunoactivity of CRSP,pig Caudatum,1.3 ± 0.1 pmol/g tissue
same,Immunoactivity of CRSP,pig Cerebellum,0.18 ± 0.02 pmol/g tissue
same,Immunoactivity of CRSP,pig Cerebral cortex,0.29 ± 0.04 pmol/g tissue
same,Immunoactivity of CRSP,pig Hippocampus,0.78 ± 0.16 pmol/g tissue
same,Immunoactivity of CRSP,pig Hypothalamus,9.9 ± 1.2 pmol/g tissue
same,Immunoactivity of CRSP,pig Kidney/Cortex,0.12 ± 0.01 pmol/g tissue
same,Immunoactivity of CRSP,pig Kidney/Medulla,0.088 ± 0.039 pmol/g tissue
same,Immunoactivity of CRSP,pig Thyroid gland,68 ± 39 pmol/g tissue
